Results are given in words; binding and its absence hold for the method and conditions named. In cells and extracts the contact can be indirect. Some binding calls cover weakened binding; strength is not graded here.
Target: BRCA1 (human (endogenous in PC3 and LNCaP)) (UniProt P38398)
Test: co-IP

Protein sequences, listed by entry. Tags and fused reporters are not part of them.
UniProt P38398: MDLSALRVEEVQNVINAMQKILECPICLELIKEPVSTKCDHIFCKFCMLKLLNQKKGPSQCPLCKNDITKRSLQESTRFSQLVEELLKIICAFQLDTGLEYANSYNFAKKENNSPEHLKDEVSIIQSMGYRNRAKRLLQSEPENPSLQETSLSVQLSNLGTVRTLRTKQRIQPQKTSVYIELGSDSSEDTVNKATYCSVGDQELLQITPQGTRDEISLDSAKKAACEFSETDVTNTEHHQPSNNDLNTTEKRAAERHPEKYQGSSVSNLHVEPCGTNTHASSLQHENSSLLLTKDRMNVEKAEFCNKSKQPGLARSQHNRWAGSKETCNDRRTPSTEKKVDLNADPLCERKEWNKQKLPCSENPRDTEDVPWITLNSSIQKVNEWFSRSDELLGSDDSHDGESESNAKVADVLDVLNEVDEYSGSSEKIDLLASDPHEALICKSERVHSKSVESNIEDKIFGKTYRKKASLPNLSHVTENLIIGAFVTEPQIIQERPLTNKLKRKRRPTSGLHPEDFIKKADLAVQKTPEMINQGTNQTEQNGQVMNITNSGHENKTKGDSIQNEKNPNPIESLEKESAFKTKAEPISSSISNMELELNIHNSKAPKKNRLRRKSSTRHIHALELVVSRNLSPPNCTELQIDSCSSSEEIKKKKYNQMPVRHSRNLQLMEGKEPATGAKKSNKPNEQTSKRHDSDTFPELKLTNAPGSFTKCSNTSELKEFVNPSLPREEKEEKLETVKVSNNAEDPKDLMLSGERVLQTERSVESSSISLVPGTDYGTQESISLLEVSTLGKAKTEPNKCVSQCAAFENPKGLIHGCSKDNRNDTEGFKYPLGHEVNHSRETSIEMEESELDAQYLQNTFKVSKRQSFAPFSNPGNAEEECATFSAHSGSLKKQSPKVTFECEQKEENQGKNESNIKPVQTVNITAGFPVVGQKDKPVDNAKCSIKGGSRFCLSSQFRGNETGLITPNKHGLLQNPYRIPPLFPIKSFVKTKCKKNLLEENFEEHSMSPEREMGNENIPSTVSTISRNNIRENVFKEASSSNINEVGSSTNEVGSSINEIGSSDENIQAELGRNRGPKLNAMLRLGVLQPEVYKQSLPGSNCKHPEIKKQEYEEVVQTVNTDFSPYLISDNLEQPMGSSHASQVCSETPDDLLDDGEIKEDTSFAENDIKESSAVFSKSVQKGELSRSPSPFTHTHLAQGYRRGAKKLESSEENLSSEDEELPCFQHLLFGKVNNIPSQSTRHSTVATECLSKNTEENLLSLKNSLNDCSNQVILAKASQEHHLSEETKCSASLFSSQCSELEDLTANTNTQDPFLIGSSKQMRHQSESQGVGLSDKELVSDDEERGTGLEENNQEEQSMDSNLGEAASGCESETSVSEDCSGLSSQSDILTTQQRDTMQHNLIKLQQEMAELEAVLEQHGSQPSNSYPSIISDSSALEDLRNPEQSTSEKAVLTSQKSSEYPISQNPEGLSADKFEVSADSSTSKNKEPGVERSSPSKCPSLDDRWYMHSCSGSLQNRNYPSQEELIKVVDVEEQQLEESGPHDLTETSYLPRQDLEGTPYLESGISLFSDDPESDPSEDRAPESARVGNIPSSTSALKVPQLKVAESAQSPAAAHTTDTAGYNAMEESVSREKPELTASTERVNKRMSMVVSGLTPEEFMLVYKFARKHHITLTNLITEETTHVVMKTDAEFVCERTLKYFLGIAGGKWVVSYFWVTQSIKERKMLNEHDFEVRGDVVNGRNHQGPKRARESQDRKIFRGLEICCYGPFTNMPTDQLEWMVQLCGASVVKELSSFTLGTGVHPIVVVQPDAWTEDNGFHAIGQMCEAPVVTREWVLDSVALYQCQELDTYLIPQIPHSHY
UniProt Q9UBL3: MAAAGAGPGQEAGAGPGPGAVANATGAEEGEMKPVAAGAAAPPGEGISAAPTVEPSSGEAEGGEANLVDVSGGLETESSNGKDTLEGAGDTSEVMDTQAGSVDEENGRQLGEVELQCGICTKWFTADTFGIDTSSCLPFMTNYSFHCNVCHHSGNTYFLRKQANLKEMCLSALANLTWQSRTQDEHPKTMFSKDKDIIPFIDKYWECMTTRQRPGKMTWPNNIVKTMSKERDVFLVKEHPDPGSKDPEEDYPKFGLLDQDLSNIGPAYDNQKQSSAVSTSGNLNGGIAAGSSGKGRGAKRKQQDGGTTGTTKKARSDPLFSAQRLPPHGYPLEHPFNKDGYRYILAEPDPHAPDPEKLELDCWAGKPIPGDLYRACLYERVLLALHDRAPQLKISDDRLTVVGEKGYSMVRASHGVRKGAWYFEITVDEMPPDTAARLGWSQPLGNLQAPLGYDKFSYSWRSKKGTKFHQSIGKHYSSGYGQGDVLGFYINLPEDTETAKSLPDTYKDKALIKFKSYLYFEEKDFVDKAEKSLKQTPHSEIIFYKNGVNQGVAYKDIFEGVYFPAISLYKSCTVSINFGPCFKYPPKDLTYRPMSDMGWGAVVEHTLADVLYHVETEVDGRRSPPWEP
UniProt Q15291: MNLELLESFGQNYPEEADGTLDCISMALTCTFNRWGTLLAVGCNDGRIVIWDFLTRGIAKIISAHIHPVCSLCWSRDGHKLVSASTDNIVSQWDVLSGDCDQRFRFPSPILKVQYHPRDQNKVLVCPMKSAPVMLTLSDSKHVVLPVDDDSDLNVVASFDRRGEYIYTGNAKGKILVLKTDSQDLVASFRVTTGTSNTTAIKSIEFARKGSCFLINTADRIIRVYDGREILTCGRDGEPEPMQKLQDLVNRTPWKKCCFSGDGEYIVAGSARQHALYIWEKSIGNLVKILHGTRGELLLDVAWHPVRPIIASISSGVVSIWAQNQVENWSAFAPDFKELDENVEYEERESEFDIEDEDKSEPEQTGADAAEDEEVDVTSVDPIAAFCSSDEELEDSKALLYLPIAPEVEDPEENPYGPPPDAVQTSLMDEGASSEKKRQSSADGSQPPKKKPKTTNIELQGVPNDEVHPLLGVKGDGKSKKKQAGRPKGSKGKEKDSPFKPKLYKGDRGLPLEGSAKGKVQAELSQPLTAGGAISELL
UniProt Q8N122: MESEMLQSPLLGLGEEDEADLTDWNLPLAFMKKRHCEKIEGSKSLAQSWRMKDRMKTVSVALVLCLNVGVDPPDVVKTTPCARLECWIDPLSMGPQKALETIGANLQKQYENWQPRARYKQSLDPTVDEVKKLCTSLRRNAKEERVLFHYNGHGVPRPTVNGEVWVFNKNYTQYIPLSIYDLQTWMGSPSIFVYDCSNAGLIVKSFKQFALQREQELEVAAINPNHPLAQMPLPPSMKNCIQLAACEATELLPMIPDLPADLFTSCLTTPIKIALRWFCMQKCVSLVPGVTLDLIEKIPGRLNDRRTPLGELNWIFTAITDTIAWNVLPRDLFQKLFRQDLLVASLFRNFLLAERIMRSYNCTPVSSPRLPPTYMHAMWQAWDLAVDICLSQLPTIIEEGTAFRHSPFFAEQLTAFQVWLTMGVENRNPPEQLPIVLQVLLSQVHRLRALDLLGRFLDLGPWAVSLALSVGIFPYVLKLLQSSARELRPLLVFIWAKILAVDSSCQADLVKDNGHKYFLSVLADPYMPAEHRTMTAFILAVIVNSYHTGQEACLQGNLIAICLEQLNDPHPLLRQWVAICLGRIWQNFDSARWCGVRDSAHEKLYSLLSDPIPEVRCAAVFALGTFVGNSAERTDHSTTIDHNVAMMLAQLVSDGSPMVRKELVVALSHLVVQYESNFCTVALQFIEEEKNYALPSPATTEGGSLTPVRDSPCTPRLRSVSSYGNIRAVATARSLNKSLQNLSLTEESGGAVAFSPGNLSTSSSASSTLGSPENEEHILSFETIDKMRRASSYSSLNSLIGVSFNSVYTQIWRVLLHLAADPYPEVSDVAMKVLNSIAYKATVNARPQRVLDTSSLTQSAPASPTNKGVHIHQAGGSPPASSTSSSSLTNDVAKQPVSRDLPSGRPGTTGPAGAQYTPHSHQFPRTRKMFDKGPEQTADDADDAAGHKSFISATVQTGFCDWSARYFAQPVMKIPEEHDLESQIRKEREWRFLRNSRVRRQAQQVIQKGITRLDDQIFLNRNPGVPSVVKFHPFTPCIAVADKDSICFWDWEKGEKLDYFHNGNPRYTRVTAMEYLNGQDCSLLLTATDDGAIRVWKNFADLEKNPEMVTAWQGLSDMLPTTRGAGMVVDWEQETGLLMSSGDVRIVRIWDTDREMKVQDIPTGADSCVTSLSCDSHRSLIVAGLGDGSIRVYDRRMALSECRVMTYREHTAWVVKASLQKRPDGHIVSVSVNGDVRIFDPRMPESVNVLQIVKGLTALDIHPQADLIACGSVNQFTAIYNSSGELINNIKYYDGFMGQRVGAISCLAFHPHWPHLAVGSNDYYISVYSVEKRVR

## ASH2L (from UniProt Q9UBL3 1-628)
  binding: binds

## RBBP5 (from UniProt Q15291 1-538)
  binding: binds

## Raptor (from UniProt Q8N122 1-1335) (other; other documents disagree on this pair)
  binding: binds

From article doi:10.1101/2024.06.19.599365
